# Values from PubChem BioAssay AID1671195 (Yale University, 2021)
# Purpose: 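Genes whose knockdown alters LDL uptake in liver cancer cells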 (primary screen)
# Cells: human Huh7 hepatoma cells
# Reagents: siRNA pool against human genes, 18 nM
# Duration: about 2 to 2.5 days of knockdown, then 8 h LDL uptake
# Conditions: DiI-labelled LDL at 30 µg/ml for 8 h, in lipoprotein-deficient serum medium
# Read-out: 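Fluorescent LDL signal imaged in cells, scaled to the plate median, robust z-score for each replicate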
# Direction: robust z-score: higher = more LDL uptake after knockdown
# Rule for the call: 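a gene counts as active if at least two replicate z-scores exceed ±2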
# The deposit covers about 22,000 reagents; shown is a part drawn at random. In the full data, about 1,510 (6.9%) were called active. 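Active includes knockdowns raising or lowering LDL uptake; positive z-scores mean more uptake, negative mean less.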
Gene,"robust z-score, replicate 1","robust z-score, replicate 2","robust z-score, replicate 3",Call
TMEM119 (transmembrane protein 119),1.78,1.06,1.17,inactive
RGL3 (ral guanine nucleotide dissociation stimulator like 3),0.815,0.143,-0.578,inactive
SLC18A2,-1.21,-1.29,-1.45,inactive
LINC02764 (long independently transcribed non-coding RNA 2764),-0.0599,0.499,0.534,inactive
LOC440110 (retired record),-0.511,-0.0412,-0.384,inactive
MACF1 (microtubule actin crosslinking factor 1),0.589,0.726,0.0978,inactive
ZNF561 (zinc finger protein 561),1.7,1.53,-0.352,inactive
SOX18 (SRY-box transcription factor 18),0.341,0.679,0.954,inactive
PEX11B (peroxisomal biogenesis factor 11 beta),-0.716,-0.421,-1.87,inactive
ATP4A (ATPase H+/K+ transporting subunit alpha),-0.116,-0.508,-0.443,inactive
VPS51 (VPS51 subunit of GARP complex),2.33,0.513,0.926,inactive
ACTN3 (actinin alpha 3),-1.3,-1.21,-0.151,inactive
TMEM45A (transmembrane protein 45A),0.468,-0.59,1.25,inactive
TRIM77 (tripartite motif containing 77),-0.0806,-0.316,-0.0525,inactive
PPP5C (protein phosphatase 5 catalytic subunit),0.307,0.513,0.0454,inactive
NR4A2 (nuclear receptor subfamily 4 group A member 2),-1.46,-1.6,-2.13,inactive
CLEC5A (C-type lectin domain containing 5A),0.685,1.27,0.736,inactive
PSORS1C2 (psoriasis susceptibility 1 candidate 2),1.41,1.34,1.09,inactive
TRIM14 (tripartite motif containing 14),1.38,0.81,0.634,inactive
RIC8A (RIC8 guanine nucleotide exchange factor A),1.16,0.309,0.252,inactive
ZNF22 (zinc finger protein 22),3.09,2.72,2.9,active
LINC03163 (long independently transcribed non-coding RNA 3163),-0.946,-0.923,-1.25,inactive
PRELID3B (PRELI domain containing 3B),-0.801,-3.17,-1.32,inactive

Look-ups from the entries so far.
ZNF561 (zinc finger protein 561), Call: inactive
SLC18A2, robust z-score, replicate 1 → -1.21
Value for LINC03163 (long independently transcribed non-coding RNA 3163) in “robust z-score, replicate 2”: -0.923
TRIM77 (tripartite motif containing 77), robust z-score, replicate 1 = -0.0806
PEX11B (peroxisomal biogenesis factor 11 beta), Call = inactive
For “robust z-score, replicate 3”, RIC8A (RIC8 guanine nucleotide exchange factor A) is entered as 0.252

The list goes on:
Gene,"robust z-score, replicate 1","robust z-score, replicate 2","robust z-score, replicate 3",Call
MTNR1B (melatonin receptor 1B),1.76,2.83,2.78,active
SIL1 (SIL1 nucleotide exchange factor),-0.865,-0.667,-0.988,inactive
TTLL12 (tubulin tyrosine ligase like 12),-0.134,-1.18,-0.404,inactive
DYRK2 (dual specificity tyrosine phosphorylation regulated kinase 2),2.16,1.07,0.23,inactive
PITPNA (phosphatidylinositol transfer protein alpha),-0.052,-0.333,-0.637,inactive
ESRRG (estrogen related receptor gamma),0.387,1.04,0.545,inactive
NDUFB6 (NADH:ubiquinone oxidoreductase subunit B6),1.2,1.48,1.04,inactive
GAREM1 (GRB2 associated regulator of MAPK1 subtype 1),1.96,1.33,1.63,inactive
ARMCX1 (armadillo repeat containing X-linked 1),0.86,1.28,0.664,inactive
PTH (parathyroid hormone),1.88,1.96,1.89,inactive
RPLP0 (ribosomal protein lateral stalk subunit P0),-0.651,-0.319,-0.00165,inactive
NBR1 (NBR1 autophagy cargo receptor),0.414,0.251,1.34,inactive
PLD5 (phospholipase D family member 5),-0.764,0.0335,-0.126,inactive
PPFIA2 (PPFI scaffold protein A2),1.89,1.54,2.02,inactive
NXNL2 (nucleoredoxin like 2),-0.446,-0.718,-1.12,inactive
LOC388751 (retired record),0.183,-0.188,0.567,inactive
CCNT1 (cyclin T1),0.379,0.744,1.36,inactive
XKR4 (XK related 4),0.255,-0.203,-0.0716,inactive
NEFL (neurofilament light chain),-0.551,0.105,1.21,inactive
RABGEF1 (RAB guanine nucleotide exchange factor 1),-1.83,-1.03,-2.19,inactive
NEK5 (NIMA related kinase 5),1.22,0.592,0.536,inactive
LOC440569 (retired record),0.919,1.27,1.29,inactive
FER1L6-AS1 (FER1L6 antisense RNA 1),-0.518,-0.162,-0.513,inactive
